Screen size: about 580,000 compounds; about 6,100 (1.1%) were called active. The inconclusive results got no clear call from the source; some entries with a clear call stand among them for comparison. Calls come from the whole dose curve; as a rule, active = well fitted inhibition curve with a large enough effect; inconclusive = small, poorly fitted or top-dose-only effect, or another doubt; inactive = no such curve, though single readings can be large or run the other way. Potencies of inconclusive entries are doubtful fits and often do not repeat.
These compounds were tested against Polyunsaturated fatty acid lipoxygenase ALOX12 (Homo sapiens) (UniProt P18054) (assay: Primary qHTS assay for inhibitors of human arachidonate 12S-lipoxygenase (ALOX12): Round 2). Settings: purified 12hLO, xylenol orange hydroperoxide absorbance; activity change, negative = inhibition: at 108 µM (top of the series) unless noted.
Method in brief: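 Hydroperoxide product was detected by ferrous iron/xylenol orange as the 573 to 405 nm absorbance ratio. Arachidonic acid at 40 uM (final) was turned over for 30 min at room temperature by 150 nM human 12hLO, pH 7.0 Hepes buffer, after 15 min compound preincubation.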
% is set by controls: 0 for no effect and ±100 for the full control effect; potency is the fitted concentration of half-maximal effect.

Amino acid sequences for entries named in this document (tags omitted). A change or cut given only in a name is not applied to a line headed by its entry.
UniProt P18054: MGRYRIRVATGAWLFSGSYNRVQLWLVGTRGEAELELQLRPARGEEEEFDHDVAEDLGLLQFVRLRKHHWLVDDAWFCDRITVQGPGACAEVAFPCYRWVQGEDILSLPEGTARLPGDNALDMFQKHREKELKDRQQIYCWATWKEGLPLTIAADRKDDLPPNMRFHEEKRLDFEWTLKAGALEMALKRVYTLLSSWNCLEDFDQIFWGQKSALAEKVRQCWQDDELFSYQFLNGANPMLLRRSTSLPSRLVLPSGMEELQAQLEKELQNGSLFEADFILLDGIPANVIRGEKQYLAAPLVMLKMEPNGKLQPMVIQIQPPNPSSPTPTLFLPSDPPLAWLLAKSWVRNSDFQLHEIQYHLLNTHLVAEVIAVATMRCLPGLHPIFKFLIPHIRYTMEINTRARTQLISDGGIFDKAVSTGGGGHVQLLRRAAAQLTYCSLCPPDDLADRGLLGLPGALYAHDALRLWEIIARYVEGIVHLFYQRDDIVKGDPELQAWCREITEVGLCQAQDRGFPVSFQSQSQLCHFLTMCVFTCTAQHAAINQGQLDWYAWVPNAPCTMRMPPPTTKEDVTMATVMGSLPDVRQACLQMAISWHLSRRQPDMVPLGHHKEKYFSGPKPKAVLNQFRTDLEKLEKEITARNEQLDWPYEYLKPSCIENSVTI

Structure (SMILES) | Potency | activity change, negative = inhibition
CC(=O)Nc1ccc(NC(=O)Cn2cnc3c2c(=O)n(C)c(=O)n3C)cc1 | inconclusive: 141 µM [inhibitor, single point] | –
Nc1nc(-c2ccc3c(c2)OCCO3)cs1 | inconclusive: 22.4 µM [inhibitor, partial curve, poor fit] | –
O=C1CC(Sc2ncccn2)C(=O)N1c1ccccc1 (stereo unspecified) | inactive | –
COc1cc(NC(=O)C2CCCN(c3ncnc4c3nc3n4CCCCC3)C2)cc(OC)c1OC (stereo unspecified) | inactive | –
C(=N\Nc1ccc2ccccc2n1)/c1ccc2c(c1)OCO2 | inconclusive: 89.1 µM [inhibitor, partial curve, poor fit] | –
CCOc1ccc(S(=O)(=O)N2CCN(CCNS(=O)(=O)c3ccc(C)cc3)CC2)cc1 | inconclusive: 0.316 µM [inhibitor, full curve, poor fit] | –
O=C(O)c1ccc(CNCc2ccc(-c3ccccc3)o2)cc1 | inconclusive: 25.1 µM [inhibitor, partial curve, poor fit] | –
OCC(CO)c1cnnc2ccccc12 | inconclusive: 6.31 µM [inhibitor, full curve, poor fit] | –
Cc1ccc(NC(=O)N[C@@H]2C=C(C(=O)N[C@@H](Cc3cccs3)C(N)=O)C[C@@H](O)[C@@H]2O)cc1 | inactive | –
CC1CCCCN1C(=O)c1ccc(S(=O)(=O)N2CCCCC2C)cc1 (stereo unspecified) | inactive | –
CC(=O)c1cccc(NC(=S)NNC(=O)c2ccc(-c3ccccc3)cc2)c1 | inconclusive: 35.5 µM [inhibitor, partial curve] | –
Clc1ccc(Cn2c(/C=C/c3ccco3)nc3ccccc32)cc1 | active: 17.8 µM | –
O=c1[nH]c2cc(Cl)c([N+](=O)[O-])nc2[nH]1 | inconclusive: 22.4 µM [inhibitor, partial curve, poor fit] | –
CC(C)c1ccc(C(C(C(=O)c2ccccc2)N2CCOCC2)N2CCOCC2)cc1 (stereo unspecified) | inconclusive: 70.8 µM [inhibitor, partial curve, poor fit] | –
O=C(O)C1CC=CCC1C(=O)N1CCN(c2nc(-c3ccccc3Cl)c3cc(Br)ccc3n2)CC1 (stereo unspecified) | inconclusive: 31.6 µM [inhibitor, partial curve] | –
COc1ccccc1-c1cc(-c2ccc(C)cc2)nc(SCc2nnc(-c3ccccc3)o2)c1C#N | inactive | –
COc1ccc(-c2csc3ncnc(N4CCN(S(=O)(=O)c5cccs5)CC4)c23)cc1 | inconclusive: 79.4 µM [inhibitor, partial curve, poor fit] | –
COc1nc2ccccc2nc1N1CCC(C(=O)Nc2ccc(C)c(Cl)c2)CC1 | inconclusive: 126 µM [inhibitor, single point] | –
CCOc1ccccc1NC(=S)NC(=O)C1CCCCC1 | inconclusive: 35.5 µM [inhibitor, partial curve, poor fit] | –
C=CCNC(=O)CCc1c(C)nn(-c2ccccc2)c1Oc1ccccc1F | inconclusive: 44.7 µM [inhibitor, partial curve] | –
N#C/C(=C\c1ccc(O)c(O)c1)C(=O)Nc1cccc2ncccc12 | inconclusive: 20 µM [inhibitor, full curve, poor fit] | –

Structure (SMILES) | Potency | activity change, negative = inhibition
CC(=O)N1Cc2ccccc2CC1C(=O)O (stereo unspecified) | inconclusive: 11.2 µM [inhibitor, full curve, poor fit] | –
COc1cc(/C=C2\SC(=S)N(NS(=O)(=O)c3ccc(C)cc3)C2=O)ccc1O | inconclusive: 112 µM [inhibitor, single point] | –
OC1CCN(c2cc(C(F)(F)F)nc3ccccc23)CC1 | inconclusive: 126 µM [inhibitor, partial curve, poor fit] | –
Cc1c(-c2ccccc2)oc2c(C(=O)NC3CC3)cccc2c1=O | inconclusive: 25.1 µM [inhibitor, partial curve, poor fit] | –
O=c1ccn([C@@H]2O[C@H](CNCc3c(OCc4ccccc4F)ccc4ccccc34)[C@@H](O)[C@H]2O)c(=O)[nH]1 | inactive | –
O=C(Nc1cccc(S(=O)(=O)Nc2ccc(SC(F)F)cc2)c1)C1CCC1 | inconclusive: 100 µM [inhibitor, single point] | –
Cc1ccc(NC(=S)NCCc2ccccc2)cc1 | – | inconclusive: -48.7% [inhibitor]
Cc1nc2cc(NC(C)c3nc(C(C)(C)C)no3)ccc2o1 (stereo unspecified) | inconclusive: 35.5 µM [inhibitor, partial curve, poor fit] | –
CN(C)CCCN(C(=O)c1ccc(S(=O)(=O)N2CCCCCC2)cc1)c1nc2ccc(F)cc2s1 | inconclusive: 44.7 µM [inhibitor, partial curve, poor fit] | –
O=S(=O)(c1ccc(-c2csc(-c3cccnc3)n2)cc1)N1CCCCC1 | inconclusive: 35.5 µM [inhibitor, single point] | –
COC(=O)c1cc2sc(C)cc2n1Cc1cccc(OC)c1 | inconclusive: 28.2 µM [inhibitor, single point] | –
CC(C)(C)c1ccc(-c2nnc3sc(-c4ccncc4)nn23)cc1 | inactive | –
COc1cc(/C=C/C(=O)Nc2ccc3nc4n(c(=O)c3c2)CCCC4)cc(OC)c1OC | inactive | –
O=C(Nc1ccc(Br)c2cccnc12)c1ccc(Cn2cc([N+](=O)[O-])cn2)o1 | active: 15.8 µM | –
CCCc1cc(=O)oc2c(C)c(OCC(=O)c3ccc(OC)cc3)ccc12 | inconclusive: 112 µM [inhibitor, partial curve, poor fit] | –
Cc1noc(C)c1COC(=O)CCCNC(=O)c1ccc(Cl)cc1 | inactive | –
Oc1ccc(-c2n[nH]c(=S)n2-c2ccc3c(c2)OCCO3)c(O)c1 | inconclusive: 44.7 µM [inhibitor, partial curve] | –
Cc1ccc2nc(Cl)c(C3CC(c4ccco4)=NN3C(=O)CCCC(=O)O)cc2c1 (stereo unspecified) | inactive | –
COCCNc1nc(NCCOc2ccccc2Cl)c2sc(-c3ccccc3)cc2n1 | inconclusive: 50.1 µM [inhibitor, partial curve, poor fit] | –
O=C(CCCN1C(=O)/C(=C/c2cccs2)SC1=S)Nc1ccc(O)cc1 | inconclusive: 100 µM [inhibitor, partial curve, poor fit] | –

No new results follow: 9 of the compounds above.
Structure (SMILES) | Potency | activity change, negative = inhibition
Cc1nc2cc(NC(C)c3nc(C(C)(C)C)no3)ccc2o1 (stereo unspecified) | inconclusive: 35.5 µM [inhibitor, partial curve, poor fit] | –
CN(C)CCCN(C(=O)c1ccc(S(=O)(=O)N2CCCCCC2)cc1)c1nc2ccc(F)cc2s1 | inconclusive: 44.7 µM [inhibitor, partial curve, poor fit] | –
O=S(=O)(c1ccc(-c2csc(-c3cccnc3)n2)cc1)N1CCCCC1 | inconclusive: 35.5 µM [inhibitor, single point] | –
COC(=O)c1cc2sc(C)cc2n1Cc1cccc(OC)c1 | inconclusive: 28.2 µM [inhibitor, single point] | –
CC(C)(C)c1ccc(-c2nnc3sc(-c4ccncc4)nn23)cc1 | inactive | –
COc1cc(/C=C/C(=O)Nc2ccc3nc4n(c(=O)c3c2)CCCC4)cc(OC)c1OC | inactive | –
O=C(Nc1ccc(Br)c2cccnc12)c1ccc(Cn2cc([N+](=O)[O-])cn2)o1 | active: 15.8 µM | –
CCCc1cc(=O)oc2c(C)c(OCC(=O)c3ccc(OC)cc3)ccc12 | inconclusive: 112 µM [inhibitor, partial curve, poor fit] | –
Cc1noc(C)c1COC(=O)CCCNC(=O)c1ccc(Cl)cc1 | inactive | –
